Some of the results follow.
Columns and labels:
Experiment in all cases: log2 fold change, soluble protein after heating vs DMSO (PISA); higher = thermal stabilisation; K562 lysate, 10 uM; active = over 0.2 and 3.5 SD of the protein, either way, in both replicates (recomputed)
[1] = compound: C#Cc1cccc(Nc2ncnc3cc(OCCOC)c(OCCOC)cc23)c1 [erlotinib]
Method in brief: (§1)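 K562 pellets were dounce-homogenised in PBS pH 7.4 with 1 mM MgCl2, and the crude extract at 1 mg/mL protein was treated with 10 μM compound for 30 min. Aliquots were heated for 3 min across 48°C-58°C, pooled, and brought to 0.5% NP-40 at 4°C; soluble protein was the supernatant after 21,000xg for 90 min. Soluble protein was quantified by TMTpro 16plex LC-MS/MS with channel sums equalised, and reported as log2 fold change in thermal stability against DMSO controls, with values from duplicates.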

Protein sequences, listed by entry. Tags and fused reporters are not part of them. Lines headed by an entry give the natural chain unless they say otherwise; changes in a name come on top.
UniProt Q9BVQ7: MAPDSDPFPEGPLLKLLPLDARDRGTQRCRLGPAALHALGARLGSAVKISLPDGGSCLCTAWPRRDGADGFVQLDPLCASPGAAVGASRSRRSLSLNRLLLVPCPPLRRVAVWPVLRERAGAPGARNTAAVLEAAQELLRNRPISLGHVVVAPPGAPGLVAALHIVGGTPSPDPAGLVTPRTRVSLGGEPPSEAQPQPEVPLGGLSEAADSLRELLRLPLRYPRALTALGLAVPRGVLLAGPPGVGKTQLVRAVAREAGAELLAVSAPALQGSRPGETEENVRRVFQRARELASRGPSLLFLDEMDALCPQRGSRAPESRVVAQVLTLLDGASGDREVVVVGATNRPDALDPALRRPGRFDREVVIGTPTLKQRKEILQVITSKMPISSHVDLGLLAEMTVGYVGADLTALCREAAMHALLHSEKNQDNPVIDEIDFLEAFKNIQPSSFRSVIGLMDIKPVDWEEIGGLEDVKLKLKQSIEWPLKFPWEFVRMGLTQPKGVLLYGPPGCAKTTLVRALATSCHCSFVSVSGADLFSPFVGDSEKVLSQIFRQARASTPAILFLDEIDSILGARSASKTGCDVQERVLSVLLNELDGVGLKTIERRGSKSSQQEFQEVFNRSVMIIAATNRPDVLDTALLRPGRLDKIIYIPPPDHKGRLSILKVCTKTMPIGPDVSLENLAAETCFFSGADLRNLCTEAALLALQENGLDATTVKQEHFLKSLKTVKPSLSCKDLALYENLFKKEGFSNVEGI
UniProt Q9Y5M8: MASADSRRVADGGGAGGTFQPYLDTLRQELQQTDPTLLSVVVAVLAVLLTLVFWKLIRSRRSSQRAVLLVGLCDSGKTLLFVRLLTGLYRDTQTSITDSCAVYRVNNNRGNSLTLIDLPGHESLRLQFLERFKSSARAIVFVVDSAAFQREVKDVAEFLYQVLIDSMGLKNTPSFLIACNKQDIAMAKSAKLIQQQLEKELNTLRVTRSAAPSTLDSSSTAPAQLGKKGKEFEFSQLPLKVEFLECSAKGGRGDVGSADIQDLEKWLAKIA
UniProt Q9GZT4: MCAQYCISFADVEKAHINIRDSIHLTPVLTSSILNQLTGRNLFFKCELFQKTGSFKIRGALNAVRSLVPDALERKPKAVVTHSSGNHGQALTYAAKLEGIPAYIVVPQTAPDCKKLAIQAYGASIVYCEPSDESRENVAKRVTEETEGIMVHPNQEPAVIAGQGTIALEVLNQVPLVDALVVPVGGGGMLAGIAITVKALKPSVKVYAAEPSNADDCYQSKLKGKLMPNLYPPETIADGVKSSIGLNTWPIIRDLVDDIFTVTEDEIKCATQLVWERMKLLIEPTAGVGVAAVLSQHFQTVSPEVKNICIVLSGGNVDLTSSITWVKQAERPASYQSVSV
UniProt O95793: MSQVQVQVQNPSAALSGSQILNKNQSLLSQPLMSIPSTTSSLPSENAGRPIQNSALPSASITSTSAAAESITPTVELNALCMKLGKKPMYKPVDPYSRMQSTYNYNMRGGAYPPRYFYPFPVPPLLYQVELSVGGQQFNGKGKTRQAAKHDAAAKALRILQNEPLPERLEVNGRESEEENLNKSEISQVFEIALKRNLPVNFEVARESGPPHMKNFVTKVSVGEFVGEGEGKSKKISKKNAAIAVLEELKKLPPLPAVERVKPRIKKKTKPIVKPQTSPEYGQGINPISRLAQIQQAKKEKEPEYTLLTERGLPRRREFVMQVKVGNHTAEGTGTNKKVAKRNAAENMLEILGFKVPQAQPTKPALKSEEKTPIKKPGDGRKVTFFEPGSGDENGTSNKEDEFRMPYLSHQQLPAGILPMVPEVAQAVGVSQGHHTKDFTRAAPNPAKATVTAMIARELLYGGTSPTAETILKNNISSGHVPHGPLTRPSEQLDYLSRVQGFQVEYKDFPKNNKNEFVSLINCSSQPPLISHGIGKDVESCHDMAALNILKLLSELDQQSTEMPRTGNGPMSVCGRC
UniProt P61011: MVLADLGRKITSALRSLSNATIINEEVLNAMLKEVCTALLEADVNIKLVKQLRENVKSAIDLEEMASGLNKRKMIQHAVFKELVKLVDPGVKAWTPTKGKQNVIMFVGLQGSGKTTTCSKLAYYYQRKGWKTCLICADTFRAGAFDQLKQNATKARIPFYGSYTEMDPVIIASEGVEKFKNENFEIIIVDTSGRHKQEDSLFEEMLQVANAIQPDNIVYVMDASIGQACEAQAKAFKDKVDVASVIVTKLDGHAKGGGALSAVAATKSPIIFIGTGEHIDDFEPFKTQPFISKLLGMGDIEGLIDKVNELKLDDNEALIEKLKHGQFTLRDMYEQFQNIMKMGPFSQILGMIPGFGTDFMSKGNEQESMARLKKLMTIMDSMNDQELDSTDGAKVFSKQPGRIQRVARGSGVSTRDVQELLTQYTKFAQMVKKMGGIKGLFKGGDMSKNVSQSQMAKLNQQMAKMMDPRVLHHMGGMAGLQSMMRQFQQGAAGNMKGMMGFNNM
UniProt Q9P0W8: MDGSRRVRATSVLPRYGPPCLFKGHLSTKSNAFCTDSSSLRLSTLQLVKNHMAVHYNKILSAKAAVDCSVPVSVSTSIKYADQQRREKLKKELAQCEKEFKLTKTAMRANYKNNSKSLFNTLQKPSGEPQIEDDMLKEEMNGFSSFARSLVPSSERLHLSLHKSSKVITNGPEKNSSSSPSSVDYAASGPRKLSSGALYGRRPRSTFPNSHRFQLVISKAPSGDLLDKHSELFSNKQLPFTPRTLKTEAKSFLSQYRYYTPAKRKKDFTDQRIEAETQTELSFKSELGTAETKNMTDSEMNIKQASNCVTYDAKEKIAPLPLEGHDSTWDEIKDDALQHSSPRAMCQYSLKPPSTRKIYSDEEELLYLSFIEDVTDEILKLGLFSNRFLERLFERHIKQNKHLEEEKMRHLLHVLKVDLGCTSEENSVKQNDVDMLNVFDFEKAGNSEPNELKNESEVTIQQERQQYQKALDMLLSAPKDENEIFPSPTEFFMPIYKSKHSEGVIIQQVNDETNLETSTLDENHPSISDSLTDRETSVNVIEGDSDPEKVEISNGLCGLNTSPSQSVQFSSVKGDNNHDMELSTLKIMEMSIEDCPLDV
UniProt P49675, whole entry, looked up: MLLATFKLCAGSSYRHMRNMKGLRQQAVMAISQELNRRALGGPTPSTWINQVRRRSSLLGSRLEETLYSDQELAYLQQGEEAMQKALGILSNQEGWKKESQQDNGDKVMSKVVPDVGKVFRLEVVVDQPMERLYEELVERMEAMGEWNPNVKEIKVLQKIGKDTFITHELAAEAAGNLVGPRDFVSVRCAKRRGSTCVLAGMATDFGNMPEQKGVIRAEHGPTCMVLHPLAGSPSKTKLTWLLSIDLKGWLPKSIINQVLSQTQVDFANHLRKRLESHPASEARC
UniProt Q6ZRS2, whole entry, looked up: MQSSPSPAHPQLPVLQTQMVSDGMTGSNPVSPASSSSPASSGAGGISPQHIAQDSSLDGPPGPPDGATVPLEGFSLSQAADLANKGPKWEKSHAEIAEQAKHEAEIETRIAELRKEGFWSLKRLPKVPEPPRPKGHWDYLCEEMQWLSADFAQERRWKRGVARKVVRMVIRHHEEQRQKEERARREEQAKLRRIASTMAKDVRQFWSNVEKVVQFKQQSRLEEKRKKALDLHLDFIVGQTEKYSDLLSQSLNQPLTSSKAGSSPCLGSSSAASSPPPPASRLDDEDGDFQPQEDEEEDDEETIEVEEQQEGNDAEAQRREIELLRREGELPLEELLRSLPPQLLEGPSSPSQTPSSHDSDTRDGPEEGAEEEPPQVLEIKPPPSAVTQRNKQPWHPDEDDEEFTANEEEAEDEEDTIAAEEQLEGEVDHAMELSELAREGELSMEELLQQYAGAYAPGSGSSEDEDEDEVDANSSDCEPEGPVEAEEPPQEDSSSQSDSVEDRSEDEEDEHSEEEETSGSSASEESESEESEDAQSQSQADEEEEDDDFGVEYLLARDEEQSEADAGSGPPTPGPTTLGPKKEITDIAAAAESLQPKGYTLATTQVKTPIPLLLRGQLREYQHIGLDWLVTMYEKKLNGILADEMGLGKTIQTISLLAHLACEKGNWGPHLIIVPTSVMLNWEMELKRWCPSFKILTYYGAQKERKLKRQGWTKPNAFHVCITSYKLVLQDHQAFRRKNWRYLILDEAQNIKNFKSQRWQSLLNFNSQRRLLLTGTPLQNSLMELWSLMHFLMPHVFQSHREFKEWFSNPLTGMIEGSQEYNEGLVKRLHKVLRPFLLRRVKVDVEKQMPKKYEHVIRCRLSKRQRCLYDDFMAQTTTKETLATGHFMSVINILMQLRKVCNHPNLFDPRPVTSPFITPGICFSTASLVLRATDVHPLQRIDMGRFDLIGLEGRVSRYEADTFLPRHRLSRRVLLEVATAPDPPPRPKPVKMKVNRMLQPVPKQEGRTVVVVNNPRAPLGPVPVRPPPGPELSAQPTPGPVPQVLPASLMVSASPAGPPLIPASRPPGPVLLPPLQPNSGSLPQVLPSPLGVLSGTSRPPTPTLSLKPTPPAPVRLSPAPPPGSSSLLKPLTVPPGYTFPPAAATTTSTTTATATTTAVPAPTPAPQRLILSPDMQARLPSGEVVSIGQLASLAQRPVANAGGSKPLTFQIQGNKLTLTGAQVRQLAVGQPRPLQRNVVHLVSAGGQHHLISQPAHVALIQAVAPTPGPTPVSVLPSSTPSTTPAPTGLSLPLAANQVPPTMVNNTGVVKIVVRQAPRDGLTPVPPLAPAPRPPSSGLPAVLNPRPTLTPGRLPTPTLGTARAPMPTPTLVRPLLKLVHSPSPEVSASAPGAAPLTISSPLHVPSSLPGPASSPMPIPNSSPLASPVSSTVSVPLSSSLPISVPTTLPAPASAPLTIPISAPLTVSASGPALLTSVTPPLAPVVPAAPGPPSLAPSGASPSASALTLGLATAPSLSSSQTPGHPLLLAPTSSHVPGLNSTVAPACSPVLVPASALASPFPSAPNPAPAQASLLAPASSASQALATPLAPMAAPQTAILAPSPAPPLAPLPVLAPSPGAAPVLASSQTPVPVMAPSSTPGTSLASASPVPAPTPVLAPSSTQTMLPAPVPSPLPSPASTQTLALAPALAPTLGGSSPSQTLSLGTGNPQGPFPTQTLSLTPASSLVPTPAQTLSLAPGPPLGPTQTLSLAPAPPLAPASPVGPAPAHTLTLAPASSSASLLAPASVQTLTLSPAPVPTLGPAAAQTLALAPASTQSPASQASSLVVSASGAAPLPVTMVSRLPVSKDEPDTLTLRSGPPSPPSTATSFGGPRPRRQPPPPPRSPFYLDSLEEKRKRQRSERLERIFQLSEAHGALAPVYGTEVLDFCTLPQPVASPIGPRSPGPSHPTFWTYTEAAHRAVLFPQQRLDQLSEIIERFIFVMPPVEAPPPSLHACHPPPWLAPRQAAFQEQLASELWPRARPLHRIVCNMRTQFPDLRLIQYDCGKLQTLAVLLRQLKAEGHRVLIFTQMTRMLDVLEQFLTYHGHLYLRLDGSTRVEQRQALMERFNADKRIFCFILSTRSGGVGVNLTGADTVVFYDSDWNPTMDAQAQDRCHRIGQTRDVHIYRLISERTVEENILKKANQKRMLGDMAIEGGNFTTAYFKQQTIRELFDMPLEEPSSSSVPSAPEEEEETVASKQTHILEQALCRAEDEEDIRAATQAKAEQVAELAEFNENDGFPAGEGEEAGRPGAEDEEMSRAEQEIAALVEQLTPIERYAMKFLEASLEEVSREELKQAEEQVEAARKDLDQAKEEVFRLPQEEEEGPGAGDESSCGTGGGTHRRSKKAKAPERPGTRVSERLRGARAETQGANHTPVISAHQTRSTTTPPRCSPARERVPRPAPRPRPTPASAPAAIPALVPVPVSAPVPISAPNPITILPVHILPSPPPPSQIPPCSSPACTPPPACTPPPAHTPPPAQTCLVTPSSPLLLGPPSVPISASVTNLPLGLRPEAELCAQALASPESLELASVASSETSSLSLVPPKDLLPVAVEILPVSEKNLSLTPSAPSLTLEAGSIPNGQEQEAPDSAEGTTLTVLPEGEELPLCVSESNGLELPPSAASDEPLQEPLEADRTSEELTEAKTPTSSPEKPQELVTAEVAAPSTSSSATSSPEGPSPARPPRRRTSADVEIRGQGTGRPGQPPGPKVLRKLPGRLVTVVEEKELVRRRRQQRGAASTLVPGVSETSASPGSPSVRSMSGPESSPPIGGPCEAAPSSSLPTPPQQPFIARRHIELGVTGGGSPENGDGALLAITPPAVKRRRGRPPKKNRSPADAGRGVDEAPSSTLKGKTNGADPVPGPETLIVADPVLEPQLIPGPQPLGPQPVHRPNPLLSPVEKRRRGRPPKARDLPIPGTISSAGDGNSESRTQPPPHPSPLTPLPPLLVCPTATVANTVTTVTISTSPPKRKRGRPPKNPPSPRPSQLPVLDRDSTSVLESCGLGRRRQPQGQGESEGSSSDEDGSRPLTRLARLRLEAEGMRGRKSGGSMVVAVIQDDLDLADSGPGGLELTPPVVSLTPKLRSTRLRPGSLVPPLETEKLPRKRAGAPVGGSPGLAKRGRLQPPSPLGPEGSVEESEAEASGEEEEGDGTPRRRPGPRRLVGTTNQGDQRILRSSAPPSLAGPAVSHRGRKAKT

[2] = compound: C/C(=N\NC(=O)C1=CC(=CC=C1)S(=O)(=O)N2CCOCC2)/C3=C(C=CC(=C3)Cl)O
Method in brief: as §1

[3] = compound: C1=CC(=CC=C1C2=NC3=C(N2)C=C(C=C3)C(=O)N)OC4=CC=C(C=C4)Cl
Method in brief: as §1

[4] = compound: C1=CC2=C(C=CC(=C2)/C=C\3/C(=O)NC(=NCC4=CC=CS4)S3)N=C1
Method in brief: as §1

[5] = compound: C1=CC2=NC=CN=C2C=C1/C=C/3\C(=O)NC(=O)S3
Method in brief: as §1

[6] = compound: C1=CC=C(C=C1)C2=NC(=C(N2)C3=CC=NC=C3)C4=CC(=C(C=C4)Cl)O
Method in brief: as §1

[7] = compound: C1=CC=C2C(=C1)C3=NNC4=CC=CC(=C43)C2=O
Method in brief: as §1

[8] = compound: C1CCN(C1)C(=O)NC2=CC=CC(=C2)NC3=NC=C(C(=N3)NCCC4=CN=CN4)Br
Method in brief: as §1

[9] = compound: C1CN(CCC1(CC2=CC=C(C=C2)Cl)N)C3=NC=NC4=C3C=CN4
Method in brief: as §1

[10] = compound: C1COCCN1CCN2C3=CC=CC=C3N=C2NC(=O)C4=CC(=CC=C4)[N+](=O)[O-] [IRAK-1-4 Inhibitor I]
Method in brief: as §1

Measured: log2 fold change

SSX2 (UniProt Q16385)
inactive: [1] -0.004 | [2] 0.177 | [3] 0.024 | [4] -0.001 | [5] -0.034 | [6] 0.011 | [7] -0.006 | [8] -0.056 | [9] -0.054 | [10] -0.024

SPN (UniProt P16150)
inactive: [1] -0.019 | [2] -0.119 | [3] 0.023 | [4] 0.001 | [5] -0.018 | [6] 0.01 | [7] 0.001 | [8] 0.021 | [9] 0.022 | [10] 0.037

SSB (UniProt P05455)
inactive: [1] -0.008 | [2] 0.007 | [3] -0.014 | [4] -0.025 | [5] -0.009 | [6] 0.001 | [7] -0.015 | [8] 0.013 | [9] 0.002 | [10] -0.011

SPATA5L1 (UniProt Q9BVQ7)
inactive: [1] 0.09 | [2] -0.053 | [3] -0.017 | [4] 0.044 | [5] 0.004 | [6] 0.069 | [7] 0.01 | [8] 0.027 | [9] 0.032 | [10] 0.015

SRPRB (UniProt Q9Y5M8)
inactive: [1] -0.004 | [2] 0.029 | [3] 0.021 | [4] -0.011 | [5] -0.041 | [6] -0.003 | [7] -0.021 | [8] -0.053 | [9] -0.035 | [10] -0.033

SRSF8 (UniProt Q9BRL6)
inactive: [1] -0.021 | [2] 0.012 | [3] 0.005 | [4] -0.01 | [5] -0.017 | [6] -0.001 | [7] -0.043 | [8] 0.076 | [9] -0.007 | [10] -0.026

SRF (UniProt P11831)
inactive: [1] -0.048 | [2] -0.167 | [3] 0.024 | [4] 0.044 | [5] -0.093 | [6] -0.028 | [7] 0.034 | [8] 0.024 | [9] -0.212 | [10] 0.07

SRR (UniProt Q9GZT4)
inactive: [1] -0.046 | [2] 0.044 | [3] 0.078 | [4] 0.045 | [5] -0.007 | [6] 0.058 | [7] -0.026 | [8] 0.058 | [9] -0.025 | [10] 0.05

STAU1 (UniProt O95793)
inactive: [1] 0.02 | [2] -0.001 | [3] -0.032 | [4] 0.002 | [5] -0.016 | [6] -0.08 | [7] -0.007 | [8] -0.018 | [9] -0.003 | [10] 0.055

SRP54 (UniProt P61011)
inactive: [1] -0.026 | [2] 0.017 | [3] 0.035 | [4] 0.023 | [5] -0.043 | [6] 0.005 | [7] -0.039 | [8] -0.047 | [9] -0.003 | [10] -0.014

SPTLC1 (UniProt O15269)
inactive: [1] 0.009 | [2] 0.049 | [3] -0.024 | [4] -0.015 | [5] -0.011 | [6] -0.027 | [7] -0.014 | [8] -0.007 | [9] 0.034 | [10] 0.022

SS18 (UniProt Q15532)
inactive: [1] 0.051 | [2] -0.027 | [3] 0.01 | [4] 0.11 | [6] 0.022 | [7] 0.083 | [8] 0.002 | [9] 0.202 | [10] -0.029

SQSTM1 (UniProt Q13501)
inactive: [1] 0.04 | [2] 0.036 | [3] 0.004 | [4] -0.033 | [5] 0.034 | [6] -0.013 | [7] -0.037 | [8] -0.023 | [9] -0.025 | [10] 0.006

SPATA7 (UniProt Q9P0W8)
inactive: [1] -0.068 | [2] -0.236 | [3] -0.06 | [4] 0.001 | [5] -0.065 | [7] -0.152 | [8] -0.111 | [9] 0.026

SRPK1 (UniProt Q96SB4)
inactive: [1] 0.015 | [2] -0.04 | [3] 0.121 | [4] 0.016 | [5] 0.003 | [6] 0.05 | [7] 0.017 | [8] -0.01 | [9] 0.007 | [10] 0.019

SPOUT1 (UniProt Q5T280)
inactive: [1] 0.03 | [2] 0.049 | [3] 0.151 | [4] 0.021 | [6] -0.042 | [7] -0.038 | [8] -0.027 | [9] -0.038 | [10] 0.046

SPNS1 (UniProt Q9H2V7)
inactive: [1] 0.015 | [2] -0.043 | [3] -0.02 | [4] 0.043 | [5] -0.031 | [6] 0.029 | [7] -0.063 | [8] 0 | [9] 0.044 | [10] 0.032

STAR (UniProt P49675)
inactive: [1] 0.207 | [2] 0.01 | [3] -0.192 | [4] -0.029 | [6] 0.042 | [7] -0.058 | [8] -0.125 | [9] -0.035 | [10] -0.031

STC2 (UniProt O76061)
inactive: [1] -0.005 | [2] -0.264 | [3] -0.158 | [4] 0.046 | [6] 0.099 | [7] 0.257 | [8] -0.031 | [9] 0.052 | [10] 0.085

SPTLC2 (UniProt O15270)
inactive: [1] -0.017 | [2] 0.053 | [3] 0.034 | [4] -0.031 | [5] 0.002 | [6] -0.026 | [7] -0.019 | [8] -0.024 | [9] 0.008 | [10] 0.045

SPICE1 (UniProt Q8N0Z3)
inactive: [1] 0.163 | [2] -0.022 | [3] 0.178 | [4] 0.025 | [7] 0.285 | [8] 0.011 | [9] -0.114

Reprinted at random: 2 entries already listed, in no set order.
SSX2 (UniProt Q16385)
inactive: [1] -0.004 | [2] 0.177 | [3] 0.024 | [4] -0.001 | [5] -0.034 | [6] 0.011 | [7] -0.006 | [8] -0.056 | [9] -0.054 | [10] -0.024

SRPK1 (UniProt Q96SB4)
inactive: [1] 0.015 | [2] -0.04 | [3] 0.121 | [4] 0.016 | [5] 0.003 | [6] 0.05 | [7] 0.017 | [8] -0.01 | [9] 0.007 | [10] 0.019

Next records:

SRCAP (UniProt Q6ZRS2)
inactive: [1] -0.016 | [2] 0.054 | [3] 0.048 | [4] 0.048 | [5] -0.023 | [6] -0.004 | [7] -0.07 | [8] 0 | [9] 0.027 | [10] -0.015

SREBF2 (UniProt Q12772)
inactive: [1] 0.025 | [2] 0.131 | [3] -0.047 | [4] -0.075 | [5] -0.008 | [6] 0.014 | [7] -0.081 | [8] -0.048 | [9] 0.215 | [10] -0.036

STIM1 (UniProt Q13586)
inactive: [1] -0.037 | [2] 0.089 | [3] -0.014 | [4] 0.021 | [5] 0.001 | [6] -0.016 | [7] -0.059 | [8] -0.009 | [9] 0.005 | [10] -0.01

SPRYD7 (UniProt Q5W111)
inactive: [1] 0.034 | [2] 0.063 | [3] -0.008 | [4] 0.007 | [5] -0.039 | [6] -0.013 | [7] -0.014 | [8] 0 | [9] 0.038 | [10] -0.013

ST13P4 (UniProt Q8IZP2)
inactive: [1] 0.194 | [2] -0.159 | [3] 0.129 | [4] -0.097 | [6] 0.005 | [7] -0.051 | [10] 0.042

SPG7 (UniProt Q9UQ90)
inactive: [1] 0.184 | [2] -0.136 | [3] -0.046 | [4] 0.011 | [5] -0.04 | [6] 0.085 | [7] 0.047 | [8] 0.009 | [9] 0.044 | [10] -0.16

STAM (UniProt A6NMU3)
inactive: [1] 0.021 | [2] -0.03 | [3] -0.003 | [4] -0.127 | [6] 0.08 | [7] 0.001 | [8] -0.034 | [9] 0.035 | [10] -0.219

SSX1 (UniProt Q16384)
inactive: [1] 0.241 | [2] -0.158 | [3] 0.001 | [4] 0.009 | [6] 0.028 | [7] -0.021 | [8] -0.079 | [9] 0.044 | [10] -0.288

STARD10 (UniProt Q9Y365)
inactive: [1] -0.004 | [2] -0.026 | [3] 0.018 | [4] -0.047 | [5] -0.022 | [6] 0 | [7] 0.036 | [8] -0.012 | [9] -0.012 | [10] -0.026

STAP1 (UniProt Q9ULZ2)
inactive: [1] 0.027 | [3] 0.102

SPART (UniProt Q8N0X7)
inactive: [1] -0.018 | [2] -0.06 | [3] 0.11 | [4] 0.037 | [5] -0.062 | [6] -0.006 | [7] 0.053 | [8] -0.026 | [9] -0.055 | [10] 0

SRP72 (UniProt O76094)
inactive: [1] -0.035 | [2] -0.004 | [3] -0.002 | [4] 0.023 | [5] -0.008 | [6] -0.03 | [7] -0.033 | [8] -0.03 | [9] -0.001 | [10] -0.05

SRP9 (UniProt P49458)
inactive: [1] -0.034 | [2] 0.013 | [3] 0.021 | [4] 0.004 | [5] -0.002 | [6] -0.008 | [7] 0.038 | [8] 0.015 | [9] -0.007 | [10] 0

Reference: the supplement of paper PMC10849652
